Data reported in article doi:10.1101/2024.06.14.598964.
Like-named read-outs stand apart in the source and are kept apart here. These are yes or no findings as the source states them, for the method shown. Binding seen in cells or lysates may run through a third protein. Some binding calls cover weakened binding; strength is not graded here. For some assays here: Tags and fused reporters may be left off the sequences shown. Values belong to the molecule of their own block, whether it stands above or below them.

Chains of the proteins cited; added tags and fusions are not shown.
UniProt Q9UHY1: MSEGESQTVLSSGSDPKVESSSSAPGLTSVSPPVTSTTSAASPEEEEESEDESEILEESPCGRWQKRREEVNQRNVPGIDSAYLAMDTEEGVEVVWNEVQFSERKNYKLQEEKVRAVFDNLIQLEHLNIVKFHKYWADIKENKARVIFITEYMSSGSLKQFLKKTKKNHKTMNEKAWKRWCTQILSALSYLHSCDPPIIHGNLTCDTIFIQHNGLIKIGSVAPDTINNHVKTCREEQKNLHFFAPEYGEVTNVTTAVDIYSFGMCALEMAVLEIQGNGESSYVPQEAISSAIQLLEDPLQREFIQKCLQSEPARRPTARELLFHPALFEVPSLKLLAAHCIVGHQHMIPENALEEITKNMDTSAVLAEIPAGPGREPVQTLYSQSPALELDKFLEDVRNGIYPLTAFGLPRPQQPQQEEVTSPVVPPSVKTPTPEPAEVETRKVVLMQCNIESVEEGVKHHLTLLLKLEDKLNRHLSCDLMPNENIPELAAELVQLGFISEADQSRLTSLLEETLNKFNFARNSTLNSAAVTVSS
UniProt Q13283: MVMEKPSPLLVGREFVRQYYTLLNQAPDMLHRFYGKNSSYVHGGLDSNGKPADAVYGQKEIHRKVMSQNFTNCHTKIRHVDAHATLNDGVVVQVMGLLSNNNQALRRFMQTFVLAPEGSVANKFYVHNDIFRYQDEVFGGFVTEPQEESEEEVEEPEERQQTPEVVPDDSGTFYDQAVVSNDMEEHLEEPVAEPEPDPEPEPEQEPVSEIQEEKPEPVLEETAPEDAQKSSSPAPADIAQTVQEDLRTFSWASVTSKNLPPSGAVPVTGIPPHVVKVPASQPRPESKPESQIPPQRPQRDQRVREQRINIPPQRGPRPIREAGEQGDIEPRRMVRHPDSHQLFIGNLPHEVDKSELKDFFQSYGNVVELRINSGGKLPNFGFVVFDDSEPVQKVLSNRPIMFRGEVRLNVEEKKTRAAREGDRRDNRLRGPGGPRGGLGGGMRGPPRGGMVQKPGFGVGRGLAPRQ
UniProt P67809: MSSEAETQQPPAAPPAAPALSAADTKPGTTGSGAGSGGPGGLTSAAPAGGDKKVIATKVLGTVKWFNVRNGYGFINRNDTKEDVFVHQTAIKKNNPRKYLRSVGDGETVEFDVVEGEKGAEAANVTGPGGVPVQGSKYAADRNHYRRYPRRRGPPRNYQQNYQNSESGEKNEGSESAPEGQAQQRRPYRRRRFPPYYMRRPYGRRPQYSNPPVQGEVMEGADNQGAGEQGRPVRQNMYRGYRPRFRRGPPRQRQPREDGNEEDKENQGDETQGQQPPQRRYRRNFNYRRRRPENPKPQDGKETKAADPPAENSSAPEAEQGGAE
UniProt Q9UN81: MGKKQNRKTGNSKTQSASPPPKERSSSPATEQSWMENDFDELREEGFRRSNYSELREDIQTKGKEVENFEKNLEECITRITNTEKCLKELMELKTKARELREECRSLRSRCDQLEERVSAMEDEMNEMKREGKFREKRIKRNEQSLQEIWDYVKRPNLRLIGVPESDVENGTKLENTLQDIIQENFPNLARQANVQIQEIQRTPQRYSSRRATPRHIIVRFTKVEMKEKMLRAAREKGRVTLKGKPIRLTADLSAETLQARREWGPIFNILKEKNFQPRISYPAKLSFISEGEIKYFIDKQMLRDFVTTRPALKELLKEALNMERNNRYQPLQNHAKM

Legend:
Experiment in all cases: co-IP
[1] = molecular target: T1, Myc-Flag-NRBP2 expressed in HEK293T cells (human) (UniProt Q9NSY0)
T1 sequence: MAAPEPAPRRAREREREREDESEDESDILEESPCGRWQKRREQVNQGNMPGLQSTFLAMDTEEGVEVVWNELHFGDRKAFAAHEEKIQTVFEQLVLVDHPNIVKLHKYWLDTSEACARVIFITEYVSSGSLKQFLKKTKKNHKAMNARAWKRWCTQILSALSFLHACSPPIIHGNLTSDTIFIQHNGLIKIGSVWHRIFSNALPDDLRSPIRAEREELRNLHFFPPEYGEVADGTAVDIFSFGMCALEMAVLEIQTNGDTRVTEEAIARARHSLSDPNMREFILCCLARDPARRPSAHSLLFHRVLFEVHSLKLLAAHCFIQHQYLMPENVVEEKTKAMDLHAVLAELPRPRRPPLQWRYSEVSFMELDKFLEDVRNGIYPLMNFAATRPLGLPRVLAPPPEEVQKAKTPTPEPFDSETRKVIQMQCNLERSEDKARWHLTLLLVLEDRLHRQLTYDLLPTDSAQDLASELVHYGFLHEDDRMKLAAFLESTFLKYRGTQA

[2] = molecular target: Myc-Flag-NRBP1 expressed in HEK293T cells (human) (UniProt Q9UHY1)
[3] = molecular target: Myc-Flag-NRBP1 expressed in MCF-7 cells (human) (UniProt Q9UHY1)
[4] = molecular target: T2, Myc-Flag-NRBP2 expressed in MCF-7 cells (human) (UniProt Q9NSY0)
T2 sequence: T1 sequence

[5] = molecular target: NRBP1-Flag (full-length NRBP1) expressed in HEK293T cells (human) (UniProt Q9UHY1)
[6] = molecular target: T1, Myc-Flag-NRBP2 expressed in HEK293T cells (human); remark: listed apart in the source
[7] = molecular target: Myc-Flag-NRBP1 expressed in HEK293T cells (human) (UniProt Q9UHY1); remark: listed apart in the source

Molecule: G3BP1, endogenous in HEK293T (from UniProt Q13283 1-466)
binding [1]: binds
binding [2]: binds

Molecule: YBX1, endogenous in HEK293T (from UniProt P67809 1-324)
binding [1]: binds
binding [2]: binds

B1: NRBP2-Myc (wild-type NRBP2) expressed in HEK293T cells (protein, UniProt Q9NSY0 1-501)
chain: T1 sequence
binding [5]: binds

B3: UPF1, endogenous in HEK293T (protein, UniProt Q92900 1-1129)
chain: MSVEAYGPSSQTLTFLDTEEAELLGADTQGSEFEFTDFTLPSQTQTPPGGPGGPGGGGAGGPGGAGAGAAAGQLDAQVGPEGILQNGAVDDSVAKTSQLLAELNFEEDEEDTYYTKDLPIHACSYCGIHDPACVVYCNTSKKWFCNGRGNTSGSHIVNHLVRAKCKEVTLHKDGPLGETVLECYNCGCRNVFLLGFIPAKADSVVVLLCRQPCASQSSLKDINWDSSQWQPLIQDRCFLSWLVKIPSEQEQLRARQITAQQINKLEELWKENPSATLEDLEKPGVDEEPQHVLLRYEDAYQYQNIFGPLVKLEADYDKKLKESQTQDNITVRWDLGLNKKRIAYFTLPKTDSGNEDLVIIWLRDMRLMQGDEICLRYKGDLAPLWKGIGHVIKVPDNYGDEIAIELRSSVGAPVEVTHNFQVDFVWKSTSFDRMQSALKTFAVDETSVSGYIYHKLLGHEVEDVIIKCQLPKRFTAQGLPDLNHSQVYAVKTVLQRPLSLIQGPPGTGKTVTSATIVYHLARQGNGPVLVCAPSNIAVDQLTEKIHQTGLKVVRLCAKSREAIDSPVSFLALHNQIRNMDSMPELQKLQQLKDETGELSSADEKRYRALKRTAERELLMNADVICCTCVGAGDPRLAKMQFRSILIDESTQATEPECMVPVVLGAKQLILVGDHCQLGPVVMCKKAAKAGLSQSLFERLVVLGIRPIRLQVQYRMHPALSAFPSNIFYEGSLQNGVTAADRVKKGFDFQWPQPDKPMFFYVTQGQEEIASSGTSYLNRTEAANVEKITTKLLKAGAKPDQIGIITPYEGQRSYLVQYMQFSGSLHTKLYQEVEIASVDAFQGREKDFIILSCVRANEHQGIGFLNDPRRLNVALTRARYGVIIVGNPKALSKQPLWNHLLNYYKEQKVLVEGPLNNLRESLMQFSKPRKLVNTINPGARFMTTAMYDAREAIIPGSVYDRSSQGRPSSMYFQTHDQIGMISAGPSHVAAMNIPIPFNLVMPPMPPPGYFGQANGPAAGRGTPKGKTGRGGRQKNRFGLPGPSQTNLPNSQASQDVASQPFSQGALTQGYISMSQPSQMSQPGLSQPELSQDSYLGDEFKSQIDVALSQDSTYQGERAYQHGGVTGLSQY
binding [6]: binds
binding [7]: binds

Further lines, results first:

binding [3]: binds
binding [4]: binds
Molecule: L1-encoded ORF1 protein (open-reading frame 1), endogenous in MCF-7 (from UniProt Q9UN81 1-338)

binding [6]: binds
binding [7]: binds
B2: MOV10, endogenous in HEK293T (protein, UniProt Q9HCE1 1-1003)
chain: MPSKFSCRQLREAGQCFESFLVVRGLDMETDRERLRTIYNRDFKISFGTPAPGFSSMLYGMKIANLAYVTKTRVRFFRLDRWADVRFPEKRRMKLGSDISKHHKSLLAKIFYDRAEYLHGKHGVDVEVQGPHEARDGQLLIRLDLNRKEVLTLRLRNGGTQSVTLTHLFPLCRTPQFAFYNEDQELPCPLGPGECYELHVHCKTSFVGYFPATVLWELLGPGESGSEGAGTFYIARFLAAVAHSPLAAQLKPMTPFKRTRITGNPVVTNRIEEGERPDRAKGYDLELSMALGTYYPPPRLRQLLPMLLQGTSIFTAPKEIAEIKAQLETALKWRNYEVKLRLLLHLEELQMEHDIRHYDLESVPMTWDPVDQNPRLLTLEVPGVTESRPSVLRGDHLFALLSSETHQEDPITYKGFVHKVELDRVKLSFSMSLLSRFVDGLTFKVNFTFNRQPLRVQHRALELTGRWLLWPMLFPVAPRDVPLLPSDVKLKLYDRSLESNPEQLQAMRHIVTGTTRPAPYIIFGPPGTGKTVTLVEAIKQVVKHLPKAHILACAPSNSGADLLCQRLRVHLPSSIYRLLAPSRDIRMVPEDIKPCCNWDAKKGEYVFPAKKKLQEYRVLITTLITAGRLVSAQFPIDHFTHIFIDEAGHCMEPESLVAIAGLMEVKETGDPGGQLVLAGDPRQLGPVLRSPLTQKHGLGYSLLERLLTYNSLYKKGPDGYDPQFITKLLRNYRSHPTILDIPNQLYYEGELQACADVVDRERFCRWAGLPRQGFPIIFHGVMGKDEREGNSPSFFNPEEAATVTSYLKLLLAPSSKKGKARLSPRSVGVISPYRKQVEKIRYCITKLDRELRGLDDIKDLKVGSVEEFQGQERSVILISTVRSSQSFVQLDLDFNLGFLKNPKRFNVAVTRAKALLIIVGNPLLLGHDPDWKVFLEFCKENGGYTGCPFPAKLDLQQGQNLLQGLSKLSPSTSGPHSHDYLPQEREGEGGLSLQVEPEWRNEL
